Laboratory results from PubChem BioAssay AID445 (National Center for Advancing Translational Sciences (NCATS), 2006).
This is one part of the list. Shown are side measurements of this screen, not its main read-out; they come without a call. The list favours compounds with an active or inconclusive main result. Words in brackets tell the shape of the fitted curve; partial curves, single points and poor fits give uncertain potencies.

experiment: IkB Signaling; conditions: ABC-DLBCL IkBa-CBG/CBR dual luciferase ratio (green luciferase fused to IkBa over red control in OCI-Ly3 lymphoma cells), 4 h; measured here: control luc red channel unless noted
Method in brief: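 In this assay, an IκBα–CBG68 fusion accumulates when IKK-driven degradation is blocked; native CBR normalizes for cell number. OCI-Ly3 cells were treated 4 h with compound and doxycycline, then green and red light read after Chroma-Glo addition.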

SMILES	AC50
Cc1cccc(C)c1NC(=O)C(NS(=O)(=O)c1ccc2c(c1)CCC(=O)N2)c1ccccc1 (stereo not given)	0.501 µM [falling, full curve]
Cc1c2cnn(-c3ccccc3)c(=O)c2c(C)n1CCCC(=O)Nc1cc(F)ccc1F	12.6 µM [falling, partial curve]
CCN(c1cccc(C)c1)S(=O)(=O)c1nnc(NC(=O)C2CCCCC2)s1	7.94 µM [falling, full curve, poor fit]
O=C(CSC1=Nc2ccccc2C2=NC(CC(=O)NC3CCCCC3)C(=O)N12)Nc1ccc(F)cc1 (stereo not given)	20 µM [falling, partial curve]
COc1ccc(-c2nc3sc(CCNC(=O)c4cc(OC)c(OC)c(OC)c4)c(C)n3n2)cc1	20 µM [falling, partial curve]
COc1ccc(N2CCN(S(=O)(=O)c3ccc4oc(=O)c5ncn(C)c5c4c3)CC2)cc1	0.0126 µM [rising, full curve]
CCCCOCCCn1c(-c2ccco2)nc2nc3ccccc3nc21	12.6 µM [falling, partial curve]
CCCn1c(SCc2ccc(Cl)cc2)nc2c1c(=O)[nH]c(=O)n2C	39.8 µM [falling, single point]
COC(=O)c1scc(-c2ccc(C)cc2)c1S(=O)(=O)Nc1cc(Cl)ccc1C	12.6 µM [falling, partial curve]
CCc1ccc(S(=O)(=O)c2cn(CC(=O)Nc3ccc(C)cc3)c3ccccc3c2=O)cc1	12.6 µM [falling, partial curve]
CCOC(=O)c1[nH]c2c(c1Cc1ccccc1)C(=O)CC(c1ccc(Cl)cc1)C2 (stereo not given)	3.98 µM [falling, full curve]
Nc1c(-c2ccccc2)n[nH]c1-c1ccccc1	5.01 µM [falling, partial curve]
COc1cccc(C(c2sc3nc(-c4ccco4)nn3c2O)N2CCC(O)CC2)c1 (stereo not given)	0.501 µM [rising, partial curve]
CCOc1ccc(CCNC(=O)c2ccc3c(Cl)c4c(nc3c2)CCCC4)cc1	3.16 µM [falling, full curve]
CCOc1ccccc1NC(=O)c1sc2nc3n(c(=O)c2c1C)CCCCC3	25.1 µM [falling, single point]
Cc1ccc(-c2nc3scc(CCNC(=O)Cc4ccc(Cl)cc4)n3n2)cc1	20 µM [falling, partial curve]
CCOc1ccc(N(C(=O)CC(C)C)S(=O)(=O)c2ccc3c(c2)oc(=O)n3C)cc1	15.8 µM [falling, partial curve]
CCOc1ccc(CC(=O)NCCc2csc(-c3ccc(C)cc3)n2)cc1	31.6 µM [falling, single point]
CCN(CC)c1ccc(NS(=O)(=O)c2ccc(-c3cnc(C4CC4)o3)cc2)c(C)c1	20 µM [falling, partial curve]
Cc1noc(C)c1S(=O)(=O)N(CC(=O)NCc1ccc2c(c1)OCO2)c1ccc(C(C)C)cc1	15.8 µM [falling, partial curve]

SMILES	AC50
CCC1CN(C(=O)N2CCC(C(=O)NCCc3ccc(Cl)cc3)CC2)c2ccccc2O1 (stereo not given)	5.01 µM [rising, partial curve]
CCCn1c(SCc2nc(-c3ccc(OC)cc3OC)no2)nnc1-c1ccc(Cl)cc1	20 µM [falling, single point]
Cc1ccc(NC(=O)Cn2cc(C(=O)C3CC3)c3ccccc32)cc1	39.8 µM [rising, single point]
COc1ccc(-c2noc(CN(C(=O)COc3cc(C)c(Br)c(C)c3)C(C)C)n2)cc1	25.1 µM [falling, single point]
COc1cccc(CNC(=O)c2ccc3nc(N4CCCCC4)sc3c2)c1OC	39.8 µM [falling, single point]
Cc1ccc(CN2CCSc3ccc(C(=O)N4CCN(c5ccc(Cl)cc5)CC4)cc32)cc1	7.94 µM [falling, partial curve]
COc1ccccc1NC(=O)c1cc(S(=O)(=O)NCCc2ccccc2)ccc1F	31.6 µM [falling, partial curve, poor fit]
O=c1c2cccnc2n(Cc2ccccc2F)c(=O)n1Cc1ccc(F)cc1	39.8 µM [falling, single point]
CCCCN1C(=O)c2[nH]nc(-c3ccccc3O)c2C1c1cc(Br)c(O)c(OC)c1 (stereo not given)	12.6 µM [falling, partial curve]
CCOc1ccc(C(C)=O)cc1N1C(=O)C2C3C=CC(O3)C2C1=O (stereo not given)	10 µM [falling, partial curve]
O=S(=O)(Nc1ccc2nc(-c3ccc(F)cc3)oc2c1)c1ccccc1	31.6 µM [falling, single point]
O=C(CCn1c(=O)[nH]c2ccsc2c1=O)N1CCN(c2cccc(Cl)c2)CC1	15.8 µM [falling, partial curve]
CCOc1ccc(-n2c(=O)c3sc4ccccc4c3n(Cc3cccc(C)c3)c2=O)cc1	0.398 µM [rising, full curve]
COc1ccc(C2C(=O)N(C3CCCCC3)CC(=O)N2CCC2=CCCCC2)cc1 (stereo not given)	39.8 µM [falling, single point]
Cc1cccc(N2CCN(C(=O)CCc3c(C)nc4c(c3C)c(=O)n(C)c(=O)n4C)CC2)c1C	12.6 µM [falling, partial curve]
CC1CCC(NC(=O)c2ccc3c(c2)N(Cc2ccccc2F)C(=O)c2ccccc2S3=O)CC1 (stereo not given)	7.94 µM [falling, partial curve]
O=C(NCc1ccccc1)C(=O)NCC(c1ccc2c(c1)OCO2)N1CCOCC1 (stereo not given)	0.158 µM [falling, full curve, poor fit]
COc1ccc2c(c1)sc1ncc(C(=O)NCc3ccc(Cl)cc3)c(=O)n12	0.0398 µM [rising, full curve]
Clc1ccc(-c2cn3ncsc3n2)cc1	0.501 µM [rising, full curve]
Cc1ccc2c(c1)C(=O)OC(C(=O)Nc1ncc(Cc3ccccc3Cl)s1)C2 (stereo not given)	20 µM [falling, partial curve]

Filtered by structure: the entries above with two or more sulfur atoms.
SMILES	AC50
CCN(c1cccc(C)c1)S(=O)(=O)c1nnc(NC(=O)C2CCCCC2)s1	7.94 µM [falling, full curve, poor fit]
COC(=O)c1scc(-c2ccc(C)cc2)c1S(=O)(=O)Nc1cc(Cl)ccc1C	12.6 µM [falling, partial curve]
